Source: patent US6465187B1, “Method of treatment” (Innoventus Project AB, priority 2000, dated 2002)
At least one structure is not confirmed: it was looked up by name or label, or the drawing left a doubt.

Tested on: A1 gene
Assay: RNAse Protection Assay (RPA) of A1 gene expression in MCP5/L mast cells
Type: cell-based, mouse
Conditions: FcεRI crosslinkage 6 hr, wortmannin 100 nM, cyclosporin A 2 μg/ml, cycloheximide 10 μg/ml, dexamethasone 1 μM, EDTA 1 mM, FIG. 8A, 9

`COC[C@H]1OC(=O)c2coc3c2[C@@]1(C)C1=C(C3=O)[C@@H]2CCC(=O)[C@@]2(C)C[C@H]1OC(C)=O` [Wortmannin] was tested, and the “A1 induction by FcεRI aggregation in the presence of inhibitor” value was “could completely block A1 induction”.
With `C[C@@H]1C[C@H]2[C@@H]3CCC4=CC(=O)C=C[C@]4(C)[C@@]3(F)[C@@H](O)C[C@]2(C)[C@@]1(O)C(=O)CO` [dexamethasone] the “A1 induction by FcεRI aggregation in the presence of inhibitor” value was “could completely block A1 induction”.
